Reference: PubChem BioAssay AID493014 (National Center for Advancing Translational Sciences (NCATS), 2011)
This is one part of the list. Shown are side measurements of this screen, not its main read-out; they come without a call. Most of these compounds were active or inconclusive in the main read-out, so they are no random draw. Words in brackets tell the shape of the fitted curve; partial curves, single points and poor fits give uncertain potencies.

Experiment: qHTS Assay to Find Inhibitors of Chronic Active B-Cell Receptor Signaling
Details: ABC-DLBCL IkBa-CBG/CBR reporter, luminescence ratio (green luciferase fused to IkBa over red control in TMD8 lymphoma cells), 4 h
In short: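 TMD8 human ABC-DLBCL cells with doxycycline-inducible IκBα–green luciferase fusion and unfused red luciferase, in 0.5% FBS medium; compounds up to 46 uM, 4 h at 37C. Green/red luminescence ratio, filter-overlap corrected, fitted to concentration-response curves.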

[1] = measured here: CBR red luminescence, cell number
[2] = measured here: IkBa-CBG green luminescence

Structure (SMILES)	AC50 [1]	AC50 [2]
CCn1ccc(C(=O)Oc2ccc(C(C)C)cc2)n1	20.6 µM [rising, partial curve]	
CC(C)c1ccc(NC(=O)COc2ccccc2)cc1	2.51 µM [rising, full curve]	
COc1ccccc1S(=O)(=O)Cc1ccc(C(=O)N2CCN(c3cccc(Cl)c3)CC2)o1	35.5 µM [falling, single point]	
Cc1cccc(NC(=O)C2CCN(S(=O)(=O)c3cccc4cccnc34)CC2)n1	11.2 µM [falling, partial curve, poor fit]	
CC(C)N(C(=O)[C@H]1C[C@H](CC(=O)NCCCN(C)C)C(=O)N2CCc3c([nH]c4cc(-c5ccco5)ccc34)[C@]12C)C(C)C		20.6 µM [falling, single point]
Cc1cc(C)c2c(N)c(C(=O)NC3CCCC3)sc2n1	12.6 µM [falling, single point]	
COc1cc(C(=O)Oc2cc(N)n(S(=O)(=O)c3ccccc3)n2)cc(OC)c1OC	22.4 µM [falling, single point]	
CN(CC(=O)NCC(c1ccccc1)N1CCCC1)S(=O)(=O)c1ccc(Cl)cc1 (configuration not stated)	23.1 µM [falling, single point]	
O=C(Nc1cccc(-c2nc3ccccc3s2)c1)c1cccs1	2.31 µM [falling, full curve]	
Cc1ccc(S(=O)(=O)N2CCN(Cc3ccccn3)CC2)cc1	3.16 µM [rising, partial curve, poor fit]	
Cc1nnc(NC(=O)CN2CCN(Cc3ccc(F)cc3Cl)CC2)s1	10 µM [rising, partial curve, poor fit]	
O=C(CCC(=O)Nc1nnc(C2CCCCC2)s1)NCC1CCCO1 (configuration not stated)	4.11 µM [rising, partial curve]	
Cc1cccc(OCC(O)Cn2c(=N)n(Cc3ccccc3)c3ccccc32)c1 (configuration not stated)	8.91 µM [falling, partial curve, poor fit]	
COc1ccc(N2CCN(CC(=O)Nc3c(C)cc(C)cc3C)CC2)cc1	0.501 µM [rising, full curve]	
CCc1ccc2[nH]c(=O)c(CN(CCCN3CCOCC3)C(=O)Nc3cccc(Cl)c3)cc2c1	15.8 µM [falling, partial curve]	
Cc1cccc(OCc2nnc(N)s2)c1C	35.5 µM [falling, single point]	
CC(C)(C)NC(=O)CSc1ncccc1-c1nc2ccccc2[nH]1	7.08 µM [falling, partial curve]	
O=C(CSc1cccc2cccnc12)Nc1ccccc1F	15.8 µM [falling, partial curve, poor fit]	
Cc1ccc(COC(=O)c2nn(C)c(=O)c3ccccc23)cc1	2.82 µM [rising, full curve]	
CC1=NN(c2ccc(C)c(C)c2)C(=O)/C1=C/c1ccc2c(c1)n(C)c(=O)n2C		2.31 µM [rising, partial curve, poor fit]
Cc1ccc(N2C(=O)N3[C@H](c4ccc(Br)cc4)[C@@H]4C(=O)N(C(C)(C)C)C(=O)[C@@H]4[C@]3(C)C2=O)cc1	35.5 µM [falling, single point]	

Structure (SMILES)	AC50 [1]	AC50 [2]
COc1ccccc1-c1nc(N)n[nH]1	4.47 µM [falling, partial curve]	
O=C(CN1CCOCC1)N/N=C/C(Br)=C\c1ccccc1	15.8 µM [rising, single point]	
CCOC(=O)N1CCN(Cc2c(O)ccc3ccccc23)CC1	35.5 µM [falling, single point]	
O=C(C1CCN(S(=O)(=O)c2cccnc2)CC1)N1CCCCC1	13 µM [rising, partial curve, poor fit]	
O=C(COc1ccc(Br)cc1)Nc1ccc(N2CCOCC2)cc1N1CCOCC1	3.26 µM [rising, partial curve, poor fit]	
O=C(O)c1ccccc1NS(=O)(=O)c1ccccc1C(F)(F)F	0.0651 µM [falling, full curve, poor fit]	
COc1ccc(CNC(=O)Cn2nc([N+](=O)[O-])c(Br)c2C)cc1OC	3.98 µM [rising, full curve, poor fit]	
Cc1c(Cl)c(C(=O)NNC(=S)Nc2ccc(F)cc2)nn1C	12.6 µM [falling, partial curve, poor fit]	
CC(C)Sc1cc(N2CCCC2)nc(-c2ccc(F)cc2)n1	35.5 µM [falling, single point]	
O=C(c1ccccc1)N1N=C(C(F)(F)F)CC1(O)c1ccc(F)cc1 (configuration not stated)	11.2 µM [falling, partial curve]	
CN(C)C(=O)OCC1COc2ccccc2O1 (configuration not stated)	35.5 µM [rising, single point]	
C=CCN1C(=O)c2cccc3c(Br)ccc(c23)C1=O	2.51 µM [falling, partial curve, poor fit]	
Cc1occc1-c1nc(-c2ccncc2)no1	2.06 µM [rising, full curve, poor fit]	
Cc1c(NC(=O)c2cc(-n3cnnc3)ccc2Cl)cccc1-c1nc2ccccc2o1	1.3 µM [falling, full curve]	
CCOc1cc(CNc2ccc3c(c2)OCCO3)cc(Br)c1OCC(N)=O	35.5 µM [falling, single point]	
COc1ccc(COc2cc(-c3cccc(OC)c3)nc3ccc(NC(=O)c4ccc(C)cc4)cc23)cc1	23.1 µM [rising, partial curve, poor fit]	18.4 µM [falling, single point]
COc1cc(/C(C)=C/c2ccccc2)c2c(c1)oc1ccccc12	5.62 µM [rising, partial curve, poor fit]	
COc1ccc(-c2nnc(SCC(=O)NCCc3ccccc3)o2)cc1	4.11 µM [rising, full curve, poor fit]	
CCCCOC(=O)Nc1ccc(S(=O)(=O)Nc2onc(C)c2C)cc1	1.26 µM [rising, partial curve, poor fit]	
NC(=O)c1ccsc1NC(=O)CCS(=O)(=O)c1ccc(F)cc1	14.6 µM [falling, partial curve, poor fit]	

4 of the compounds above, as labelled records.
CCOC(=O)N1CCN(Cc2c(O)ccc3ccccc23)CC1
  AC50 [1]: 35.5 µM [falling, single point]
O=C(C1CCN(S(=O)(=O)c2cccnc2)CC1)N1CCCCC1
  AC50 [1]: 13 µM [rising, partial curve, poor fit]
O=C(COc1ccc(Br)cc1)Nc1ccc(N2CCOCC2)cc1N1CCOCC1
  AC50 [1]: 3.26 µM [rising, partial curve, poor fit]
O=C(O)c1ccccc1NS(=O)(=O)c1ccccc1C(F)(F)F
  AC50 [1]: 0.0651 µM [falling, full curve, poor fit]
